The target of this experiment is IscU, Fe-S cluster scaffold protein (E. coli) (E. coli) (UniProt P0ACD4). The experiment in a line: native MS; Zn2+-IscU (100% Zn2+) alone, 200 mM ammonium formate pH 8.0; both purified.

Sequences of proteins named here, by UniProt entry; tags and fusion partners are left off.
UniProt P0ACD4: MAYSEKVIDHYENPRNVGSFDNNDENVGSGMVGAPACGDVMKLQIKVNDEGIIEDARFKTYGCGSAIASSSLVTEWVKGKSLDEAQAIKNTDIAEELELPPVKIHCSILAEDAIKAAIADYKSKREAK

No constants are given. Whether binding was seen depends on the method and setting.

In the case of “IscU, Fe-S cluster scaffold protein (E. coli) (from UniProt P0ACD4 1-128)”, the binding result was “no binding (condition: with Zn2+ bound to IscU)”.
